Laboratory results from paper PMC11358013.

Chains of the proteins cited; added tags and fusions are not shown. A line that says so, or that is headed by a name, gives the form on record, which may keep a tag or linker.
human FANCD2 + human FANCI, one chain, as listed by the source, chain 1 of 2: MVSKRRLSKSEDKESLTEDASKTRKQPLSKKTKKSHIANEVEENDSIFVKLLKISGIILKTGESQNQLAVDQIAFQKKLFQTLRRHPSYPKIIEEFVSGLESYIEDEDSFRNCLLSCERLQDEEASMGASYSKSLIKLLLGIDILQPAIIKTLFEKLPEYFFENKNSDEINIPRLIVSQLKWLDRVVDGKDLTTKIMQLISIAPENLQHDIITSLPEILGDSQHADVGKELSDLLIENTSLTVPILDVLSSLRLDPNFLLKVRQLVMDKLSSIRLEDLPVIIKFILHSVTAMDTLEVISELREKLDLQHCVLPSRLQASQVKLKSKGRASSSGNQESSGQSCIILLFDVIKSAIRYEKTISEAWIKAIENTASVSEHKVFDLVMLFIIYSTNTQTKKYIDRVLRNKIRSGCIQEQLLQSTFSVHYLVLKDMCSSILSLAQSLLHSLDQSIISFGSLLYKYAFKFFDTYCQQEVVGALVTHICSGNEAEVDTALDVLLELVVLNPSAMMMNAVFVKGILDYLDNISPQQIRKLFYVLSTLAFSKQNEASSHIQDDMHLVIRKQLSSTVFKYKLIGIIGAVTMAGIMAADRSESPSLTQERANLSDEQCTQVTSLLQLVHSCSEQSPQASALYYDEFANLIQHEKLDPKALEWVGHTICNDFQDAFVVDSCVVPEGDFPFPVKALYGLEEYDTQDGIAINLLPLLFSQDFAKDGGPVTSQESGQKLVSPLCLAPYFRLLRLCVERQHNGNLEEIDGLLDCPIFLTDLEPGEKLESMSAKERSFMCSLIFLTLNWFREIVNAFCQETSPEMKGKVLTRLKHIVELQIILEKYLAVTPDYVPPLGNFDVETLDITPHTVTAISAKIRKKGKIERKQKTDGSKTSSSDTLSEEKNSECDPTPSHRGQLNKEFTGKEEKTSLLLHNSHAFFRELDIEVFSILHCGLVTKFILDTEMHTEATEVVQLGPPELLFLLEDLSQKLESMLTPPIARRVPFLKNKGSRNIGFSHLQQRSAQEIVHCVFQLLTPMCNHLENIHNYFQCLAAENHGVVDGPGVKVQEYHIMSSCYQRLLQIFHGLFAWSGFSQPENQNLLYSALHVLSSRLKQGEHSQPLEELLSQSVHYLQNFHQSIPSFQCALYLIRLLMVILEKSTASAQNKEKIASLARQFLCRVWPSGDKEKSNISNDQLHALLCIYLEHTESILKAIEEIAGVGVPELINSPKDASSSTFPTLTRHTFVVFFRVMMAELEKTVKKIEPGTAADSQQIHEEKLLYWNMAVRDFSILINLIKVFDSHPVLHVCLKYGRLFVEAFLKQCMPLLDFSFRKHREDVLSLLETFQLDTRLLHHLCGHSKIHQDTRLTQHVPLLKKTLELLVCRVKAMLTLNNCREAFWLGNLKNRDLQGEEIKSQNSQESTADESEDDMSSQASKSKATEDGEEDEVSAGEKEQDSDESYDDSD
human FANCD2 + human FANCI, one chain, as listed by the source, chain 2 of 2: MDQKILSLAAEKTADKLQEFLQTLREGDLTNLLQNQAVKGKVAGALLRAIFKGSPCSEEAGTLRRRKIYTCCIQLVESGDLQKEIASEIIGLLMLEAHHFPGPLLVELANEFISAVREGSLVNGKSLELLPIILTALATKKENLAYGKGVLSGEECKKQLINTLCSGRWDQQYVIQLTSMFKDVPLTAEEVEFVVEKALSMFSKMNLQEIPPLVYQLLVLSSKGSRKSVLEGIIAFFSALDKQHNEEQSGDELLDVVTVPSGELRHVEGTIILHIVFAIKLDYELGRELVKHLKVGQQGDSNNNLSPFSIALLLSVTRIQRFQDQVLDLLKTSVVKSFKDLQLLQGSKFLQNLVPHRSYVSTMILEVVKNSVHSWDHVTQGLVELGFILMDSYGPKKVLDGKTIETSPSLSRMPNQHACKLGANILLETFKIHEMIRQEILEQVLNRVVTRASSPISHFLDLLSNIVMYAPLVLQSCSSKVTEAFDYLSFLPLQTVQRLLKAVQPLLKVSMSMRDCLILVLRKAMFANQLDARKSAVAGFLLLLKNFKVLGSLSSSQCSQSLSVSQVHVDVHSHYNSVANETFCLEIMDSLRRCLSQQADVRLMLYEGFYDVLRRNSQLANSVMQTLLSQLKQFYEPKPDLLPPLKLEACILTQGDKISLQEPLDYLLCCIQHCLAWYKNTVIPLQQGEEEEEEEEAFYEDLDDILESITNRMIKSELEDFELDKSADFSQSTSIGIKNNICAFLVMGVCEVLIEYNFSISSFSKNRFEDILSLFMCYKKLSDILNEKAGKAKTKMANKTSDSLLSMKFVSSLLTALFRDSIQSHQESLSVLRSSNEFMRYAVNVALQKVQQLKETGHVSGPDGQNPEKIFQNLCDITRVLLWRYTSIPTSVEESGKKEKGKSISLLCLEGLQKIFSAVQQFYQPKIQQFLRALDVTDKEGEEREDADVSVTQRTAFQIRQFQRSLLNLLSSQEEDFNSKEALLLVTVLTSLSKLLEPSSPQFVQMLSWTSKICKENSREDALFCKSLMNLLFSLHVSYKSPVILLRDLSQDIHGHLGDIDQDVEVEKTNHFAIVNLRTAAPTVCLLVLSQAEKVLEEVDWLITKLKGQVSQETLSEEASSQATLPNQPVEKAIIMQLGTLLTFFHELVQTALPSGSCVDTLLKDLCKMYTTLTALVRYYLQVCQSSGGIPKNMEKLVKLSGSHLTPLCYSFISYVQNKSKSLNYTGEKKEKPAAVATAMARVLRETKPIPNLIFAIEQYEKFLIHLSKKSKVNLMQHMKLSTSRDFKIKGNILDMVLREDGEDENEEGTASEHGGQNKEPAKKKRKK

Tests used:
FANCD2 WT + FANCI WT = test: cryo-EM; conditions: 3.7 A, sliding state, switchSENSE: 20 mM HEPES pH 8.0, 75 mM NaCl, 1 mM TCEP, 25 C, cryo-EM and single-molecule: 20 mM HEPES pH 7.5, 75 mM NaCl, recombinant protein
[1] = test system: human FANCD2 + human FANCI; test: cryo-EM; conditions: human D2-I closes on 44 bp dsDNA, switchSENSE: 20 mM HEPES pH 8.0, 75 mM NaCl, 1 mM TCEP, 25 C, cryo-EM and single-molecule: 20 mM HEPES pH 7.5, 75 mM NaCl, recombinant protein, protein details: tag cleaved (3C),tag cleaved (3C)

ATCGATGTCTCTAGACAGCTGCTCAGGATTGATCTGTAATGGCC (double strand) [44 bp dsDNA (cryo-EM)]
binding result (FANCD2 WT + FANCI WT): binds
binding result [1]: binds

The exact form of at least one protein or probe is not confirmed.
